PubChem BioAssay AID504744 – Drosophila RNAi Screening Center – 2011
Screen: 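Find genes whose loss alters insulin-driven dAkt phosphorylation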 (primary screen). Cell system: Drosophila Kc167 cells. Reagents: long dsRNA against Drosophila genes, 250 ng dsRNA per well of a 384-well plate. Time to read-out: 3 days of knock-down, then overnight serum-free starvation before stimulation. Treatment: bovine insulin at 387 nM for 10 minutes after 12 h without serum. Measurement: 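Per-well phospho-dAkt level from an in-cell fluorescent antibody stain, divided by a DNA-dye signal; log2 residuals turned into z-scores that take cell number into account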. Active means: 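Hit in the insulin screen when the two-replicate mean z-score is more extreme than plus or minus 2.5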.
In all, the deposit lists about 23,000 reagents; this is an unselected part of those that have a named target and a result. Of all reagents, 98 (0.43%) got an active call. 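Only hit calls are given; the phospho-dAkt signals, z-scores and hit direction were not deposited.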 A plus sign joins genes that one reagent is predicted to hit.

btl [DRSC11331]
- activity call: inactive

CG10747 [DRSC02104]
- activity call: inactive

CG34231 [DRSC05323]
- activity call: inactive

CG33158 [DRSC09708]
- activity call: inactive

CG33158 [DRSC09709]
- activity call: inactive

CG33158 [DRSC10438]
- activity call: inactive

CG14834 [DRSC10204]
- activity call: inactive

CG34109 [DRSC02169]
- activity call: inactive

CG34109 [DRSC02224]
- activity call: inactive

CG34109 [DRSC02225]
- activity call: inactive

CG8219 [DRSC10971]
- activity call: inactive

MrgBP [DRSC06417]
- activity call: inactive

MCU [DRSC10339]
- activity call: inactive

CG11882 [DRSC14425]
- activity call: inactive

Etf-QO [DRSC06111]
- activity call: inactive

Dnz1 [DRSC03317]
- activity call: inactive

SNCF [DRSC10115]
- activity call: inactive

PVRAP [DRSC09966]
- activity call: inactive

PVRAP [DRSC10577]
- activity call: inactive

vimar [DRSC05026]
- activity call: inactive

CG13045 [DRSC09926]
- activity call: inactive

Tmem63 [DRSC06063]
- activity call: inactive

cDIP [DRSC14267]
- activity call: inactive

CG12470 [DRSC18620]
- activity call: inactive

bru2 [DRSC01246]
- activity call: inactive

bru2 [DRSC01247]
- activity call: inactive

bru2 [DRSC01249]
- activity call: inactive

bru2 [DRSC01250]
- activity call: inactive

bru2 [DRSC02557]
- activity call: inactive

Slh [DRSC00789]
- activity call: inactive

CheA87a [DRSC14839]
- activity call: inactive

CG42306 + Gint3 [DRSC06934]
- activity call: inactive

Tmtc1 [DRSC00147]
- activity call: inactive

Tmtc1 [DRSC00151]
- activity call: inactive

Tmtc1 [DRSC00314]
- activity call: inactive

Tmtc1 [DRSC00411]
- activity call: inactive

eIF2D [DRSC13916]
- activity call: inactive

Ndc80 [DRSC20221]
- activity call: inactive

Ndc80 [DRSC21726]
- activity call: inactive

Gr64d + Gr64e [DRSC08446]
- activity call: inactive

CG31528 [DRSC12003]
- activity call: inactive

CG9689 [DRSC18440]
- activity call: inactive

Drat [DRSC06600]
- activity call: inactive

tomboy20 [DRSC14913]
- activity call: inactive

CG11710 [DRSC20485]
- activity call: inactive

CG10962 [DRSC18421]
- activity call: inactive

cv-c [DRSC14969]
- activity call: inactive

cv-c [DRSC14970]
- activity call: inactive

cv-c [DRSC14971]
- activity call: inactive

cv-c [DRSC14972]
- activity call: inactive

cv-c [DRSC14973]
- activity call: inactive

cv-c [DRSC16428]
- activity call: inactive

CG5880 [DRSC15906]
- activity call: inactive

Sytalpha [DRSC02869]
- activity call: inactive

mtDNA-helicase [DRSC02912]
- activity call: inactive

lectin-30A [DRSC02560]
- activity call: inactive

Chs2 [DRSC11830]
- activity call: inactive
